Measured values: publication PMC7732837
Construct, isoform or probe ends are uncertain for at least one entry. Where cells or extracts were used, other partners may take part.

Chains of the proteins cited; added tags and fusions are not shown. Lines headed by an entry give the natural chain unless they say otherwise; changes in a name come on top.
UniProt Q16665: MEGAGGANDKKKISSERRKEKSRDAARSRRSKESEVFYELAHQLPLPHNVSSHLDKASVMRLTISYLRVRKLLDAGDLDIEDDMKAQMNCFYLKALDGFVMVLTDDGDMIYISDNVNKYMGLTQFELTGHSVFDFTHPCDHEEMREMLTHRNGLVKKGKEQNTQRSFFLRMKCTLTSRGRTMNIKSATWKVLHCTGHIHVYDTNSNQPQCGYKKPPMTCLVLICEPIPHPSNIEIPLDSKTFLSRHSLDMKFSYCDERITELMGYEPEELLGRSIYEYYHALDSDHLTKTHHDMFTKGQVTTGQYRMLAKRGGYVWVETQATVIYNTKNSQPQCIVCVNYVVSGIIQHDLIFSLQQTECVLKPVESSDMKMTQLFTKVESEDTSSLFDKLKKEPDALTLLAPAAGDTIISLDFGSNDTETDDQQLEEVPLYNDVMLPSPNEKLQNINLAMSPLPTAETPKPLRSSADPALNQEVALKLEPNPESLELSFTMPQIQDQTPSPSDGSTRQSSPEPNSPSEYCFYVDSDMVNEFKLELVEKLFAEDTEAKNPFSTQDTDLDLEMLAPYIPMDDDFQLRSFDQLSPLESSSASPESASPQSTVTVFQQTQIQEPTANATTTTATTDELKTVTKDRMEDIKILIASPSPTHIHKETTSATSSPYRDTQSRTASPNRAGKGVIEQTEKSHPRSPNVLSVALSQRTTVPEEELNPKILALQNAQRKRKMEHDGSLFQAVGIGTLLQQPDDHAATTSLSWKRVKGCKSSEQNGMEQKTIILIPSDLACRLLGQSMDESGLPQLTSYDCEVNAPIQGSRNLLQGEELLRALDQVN

Legend:
[1] = target: HIF-1alpha (endogenous HIF-1, CoCl2-treated IMR-90 nuclear extract) (UniProt Q16665); assay: EMSA; conditions: 20 mM Hepes pH 7.9, 2 mM MgCl2, 0.1 mM EDTA, 10% glycerol, 2 mM spermidine, 0.5 mM DTT, 30-50 ng salmon-sperm DNA, 2 ug BSA, 20 uL, 30 min on ice, protein in an extract, label: 32P (dATP)
[2] = target: HIF-1alpha (endogenous HIF-1, CoCl2-treated IMR-90 nuclear extract) (UniProt Q16665); assay: EMSA with antibody supershift/competition; conditions: 20 mM Hepes pH 7.9, 2 mM MgCl2, 0.1 mM EDTA, 10% glycerol, 2 mM spermidine, 0.5 mM DTT, 30-50 ng salmon-sperm DNA, 2 ug BSA, 20 uL, 30 min on ice, protein in an extract, label: 32P (dATP)

Sequence | binding result ([1]; plus recombinant His-BTG3, binding not affected) | binding result [2] | binding result ([1]; plus recombinant full-length His-BTG3, binding not affected)
CAGTCTGTCCCGACGTGACTTCCTC (double strand) [COX-2 promoter HRE] | binds | binds | 
CAGTGCATACGTGGGCTCCAACAGGTCCTC (double strand) [VEGFA promoter HRE (VEGF II)] |  | binds | binds
